Assay [1] has as its target T1, Flag-RNF144A (ring finger protein 144A) (human) (UniProt P50876).
T1 sequence: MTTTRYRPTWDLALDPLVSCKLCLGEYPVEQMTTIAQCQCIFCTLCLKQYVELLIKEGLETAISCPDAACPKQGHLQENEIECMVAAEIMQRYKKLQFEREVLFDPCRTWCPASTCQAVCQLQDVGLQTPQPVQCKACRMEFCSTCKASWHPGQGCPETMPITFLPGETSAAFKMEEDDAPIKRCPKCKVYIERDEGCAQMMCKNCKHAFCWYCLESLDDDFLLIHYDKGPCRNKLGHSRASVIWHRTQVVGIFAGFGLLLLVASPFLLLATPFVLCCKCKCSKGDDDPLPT
The assay can be described thus: co-IP; HEK293T cells transfected with Flag-RNF144A and HA-PARP1 alone or in combination, 48 h, IP with anti-Flag antibody, immunoblotting; NP-40 lysis buffer, overnight at 4 °C.

The chains behind the UniProt entries cited, without tags or fusion partners.
UniProt P09874: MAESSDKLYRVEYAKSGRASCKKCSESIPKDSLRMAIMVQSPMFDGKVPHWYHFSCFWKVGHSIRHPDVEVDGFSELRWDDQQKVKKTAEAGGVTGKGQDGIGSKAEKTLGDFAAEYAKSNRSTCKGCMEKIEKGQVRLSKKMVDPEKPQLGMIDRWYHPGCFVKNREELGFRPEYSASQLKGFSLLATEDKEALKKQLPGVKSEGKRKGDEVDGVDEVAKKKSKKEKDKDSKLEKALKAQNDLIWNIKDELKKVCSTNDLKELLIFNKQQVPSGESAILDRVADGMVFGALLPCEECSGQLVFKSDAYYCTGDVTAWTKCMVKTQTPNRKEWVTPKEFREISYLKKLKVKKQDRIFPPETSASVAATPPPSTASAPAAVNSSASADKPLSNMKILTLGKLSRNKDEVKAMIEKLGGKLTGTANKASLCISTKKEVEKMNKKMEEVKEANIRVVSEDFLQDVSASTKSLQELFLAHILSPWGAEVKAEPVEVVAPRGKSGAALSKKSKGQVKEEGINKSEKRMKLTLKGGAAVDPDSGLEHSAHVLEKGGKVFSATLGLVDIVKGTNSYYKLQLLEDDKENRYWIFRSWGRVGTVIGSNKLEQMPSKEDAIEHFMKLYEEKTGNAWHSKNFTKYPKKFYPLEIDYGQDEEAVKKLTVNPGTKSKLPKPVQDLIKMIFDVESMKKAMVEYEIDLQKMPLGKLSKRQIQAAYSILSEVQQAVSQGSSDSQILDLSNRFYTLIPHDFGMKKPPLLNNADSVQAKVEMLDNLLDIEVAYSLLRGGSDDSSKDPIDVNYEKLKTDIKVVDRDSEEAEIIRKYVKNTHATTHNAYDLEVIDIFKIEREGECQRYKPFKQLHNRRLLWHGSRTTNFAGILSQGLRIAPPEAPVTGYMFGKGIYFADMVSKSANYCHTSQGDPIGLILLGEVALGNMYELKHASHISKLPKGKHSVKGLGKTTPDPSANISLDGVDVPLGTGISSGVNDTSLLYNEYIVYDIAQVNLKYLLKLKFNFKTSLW

Assay [2] addresses T2, GST-RNF144A C-terminal region (residues 253-292) containing the transmembrane domain (human) (UniProt P50876).
T2 sequence: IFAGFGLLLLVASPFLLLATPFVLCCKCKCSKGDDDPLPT
The assay can be described thus: pull-down; GST or GST-RNF144A proteins (full length or deletion constructs) on glutathione-sepharose beads incubated with total cellular lysates of HBL100 and BT474 cells at 4 °C for 4 h, immunoblotting with anti-PARP1 antibody; only the target purified.

Assay [3] concerns the target Poly(ADP-ribose) polymerase 1 (PARP1), endogenous (human (endogenous in HEK293T, HBL100, BT474)) (UniProt P09874). Kind of assay: co-IP; endogenous proteins in HBL100 and BT474 cells treated with 10 μM MG-132 for 4 h, IP with anti-PARP1 antibody, immunoblotting; NP-40 lysis buffer, overnight at 4 °C.

Results are given in words; binding and its absence hold for the method and conditions named. In cells and extracts the contact can be indirect. Some binding calls cover weakened binding; strength is not graded here. For part of these data: Tags and fused reporters may be left off the sequences shown.

For the molecule HA-PARP1 (from UniProt P09874 1-1014), in assay [1], the binding result is on record as “binds”.

On to “Poly(ADP-ribose) polymerase 1 (PARP1), endogenous (from UniProt P09874 1-1014)”, for which the binding entry in assay [2] is “binds”.

B1: Ring finger protein 144A (RNF144A), endogenous (enzyme, UniProt P50876 1-292)
chain: MTTTRYRPTWDLALDPLVSCKLCLGEYPVEQMTTIAQCQCIFCTLCLKQYVELLIKEGLETAISCPDAACPKQGHLQENEIECMVAAEIMQRYKKLQFEREVLFDPCRTWCPASTCQAVCQLQDVGLQTPQPVQCKACRMEFCSTCKASWHPGQGCPETMPITFLPGETSAAFKMEEDDAPIKRCPKCKVYIERDEGCAQMMCKNCKHAFCWYCLESLDDDFLLIHYDKGPCRNKLGHSRASVIWHRTQVVGIFAGFGLLLLVASPFLLLATPFVLCCKCKCSKGDDDPLPT
B1: the binding result in assay [3] was “binds”.

The values are drawn from paper PMC5706891.
